Measured values as given in the supplement of paper PMC11659162.
The list shows a part of the results. Single values of this set are uncertain.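 The cells are a human neuroglioma line carrying a green fluorescent autophagy reporter.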

Assays:
[1] = test system: H4 GFP-LC3; test: cell viability (scaled to control) (fraction of control); higher = more viable cells
[2] = test system: H4 GFP-LC3; test: ACBP immunofluorescence intensity (scaled to control) (AU (scaled)); higher = more intracellular ACBP/DBI

## COC(=O)[C@H]1[C@H]2C[C@H]3c4[nH]c5ccccc5c4CCN3C[C@@H]2CC[C@@H]1O (5 µM)
[1]; 6 h
  cell viability: 0.751
[1]; 24 h
  cell viability: 0.915
[2]; 6 h
  ACBP immunofluorescence intensity: 0.923
[2]; 24 h
  ACBP immunofluorescence intensity: 0.488

## Cc1nccn1CC1CCc2c(c3ccccc3n2C)C1=O (stereo not given) (5 µM)
[1]; 6 h
  cell viability: 0.872
[1]; 24 h
  cell viability: 1.04
[2]; 6 h
  ACBP immunofluorescence intensity: 0.678
[2]; 24 h
  ACBP immunofluorescence intensity: 0.421

## N=C(N)NCCCCN (5 µM)
[1]; 6 h
  cell viability: 0.918
[1]; 24 h
  cell viability: 0.706
[2]; 6 h
  ACBP immunofluorescence intensity: 0.64
[2]; 24 h
  ACBP immunofluorescence intensity: 0.428

## C[C@H](NC[C@H](O)CP(=O)(O)Cc1ccccc1)c1ccc(Cl)c(Cl)c1 (5 µM)
[1]; 6 h
  cell viability: 0.75
[1]; 24 h
  cell viability: 0.885
[2]; 6 h
  ACBP immunofluorescence intensity: 0.983
[2]; 24 h
  ACBP immunofluorescence intensity: 0.508

## Brc1c(NC2=NCCN2)ccc2nccnc12 (5 µM)
[1]; 6 h
  cell viability: 0.777
[1]; 24 h
  cell viability: 0.983
[2]; 6 h
  ACBP immunofluorescence intensity: 0.897
[2]; 24 h
  ACBP immunofluorescence intensity: 0.761

## CN1CCN(C2=Nc3cc(F)ccc3Cc3ccccc32)CC1 (5 µM)
[1]; 6 h
  cell viability: 0.779
[1]; 24 h
  cell viability: 1.07
[2]; 6 h
  ACBP immunofluorescence intensity: 0.961
[2]; 24 h
  ACBP immunofluorescence intensity: 0.648

## CC[N+](CC)(CCNC(=O)C(=O)NCC[N+](CC)(CC)Cc1ccccc1Cl)Cc1ccccc1Cl (5 µM)
[1]; 6 h
  cell viability: 0.988
[1]; 24 h
  cell viability: 1.07
[2]; 6 h
  ACBP immunofluorescence intensity: 0.92
[2]; 24 h
  ACBP immunofluorescence intensity: 0.641

## O=C(CCCN1CCC(O)(c2ccc(Cl)cc2)CC1)c1ccc(F)cc1 (5 µM)
[1]; 6 h
  cell viability: 0.686
[1]; 24 h
  cell viability: 1.13
[2]; 6 h
  ACBP immunofluorescence intensity: 0.949
[2]; 24 h
  ACBP immunofluorescence intensity: 0.55

## Oc1ccc(C2CNCCc3c2cc(O)c(O)c3Cl)cc1 (stereo not given) (5 µM)
[1]; 6 h
  cell viability: 0.918
[1]; 24 h
  cell viability: 0.993
[2]; 6 h
  ACBP immunofluorescence intensity: 0.484
[2]; 24 h
  ACBP immunofluorescence intensity: 0.554

## C=CCN1CCc2nc(N)sc2CC1 (5 µM)
[1]; 6 h
  cell viability: 0.813
[1]; 24 h
  cell viability: 1.29
[2]; 6 h
  ACBP immunofluorescence intensity: 0.979
[2]; 24 h
  ACBP immunofluorescence intensity: 0.856

## NC1C=CC=C(C(=O)O)C1 (stereo not given) (5 µM)
[1]; 6 h
  cell viability: 0.97
[1]; 24 h
  cell viability: 1.17
[2]; 6 h
  ACBP immunofluorescence intensity: 0.951
[2]; 24 h
  ACBP immunofluorescence intensity: 0.821

## N=C(N)SCCc1c[nH]cn1 (5 µM)
[1]; 6 h
  cell viability: 1.09
[1]; 24 h
  cell viability: 0.997
[2]; 6 h
  ACBP immunofluorescence intensity: 0.863
[2]; 24 h
  ACBP immunofluorescence intensity: 0.479

## CCN(Cc1ccncc1)C(=O)C(CO)c1ccccc1 (stereo not given) (5 µM)
[1]; 6 h
  cell viability: 0.917
[1]; 24 h
  cell viability: 1.24
[2]; 6 h
  ACBP immunofluorescence intensity: 0.992
[2]; 24 h
  ACBP immunofluorescence intensity: 0.849

## CN(C)CCCN1c2ccccc2CCc2ccc(Cl)cc21 (5 µM)
[1]; 6 h
  cell viability: 0.717
[1]; 24 h
  cell viability: 0.806
[2]; 6 h
  ACBP immunofluorescence intensity: 0.97
[2]; 24 h
  ACBP immunofluorescence intensity: 0.482

## N[C@H](CO)C(=O)O (5 µM)
[1]; 6 h
  cell viability: 1.03
[1]; 24 h
  cell viability: 1.06
[2]; 6 h
  ACBP immunofluorescence intensity: 0.618
[2]; 24 h
  ACBP immunofluorescence intensity: 0.411

## CC[C@@H]1C(=O)OC[C@@H]1Cc1cncn1C (5 µM)
[1]; 6 h
  cell viability: 1.04
[1]; 24 h
  cell viability: 1.06
[2]; 6 h
  ACBP immunofluorescence intensity: 0.905
[2]; 24 h
  ACBP immunofluorescence intensity: 0.62

## C#CCn1c(=O)c2c(ncn2C)n(C)c1=O (5 µM)
[1]; 6 h
  cell viability: 0.999
[1]; 24 h
  cell viability: 1.05
[2]; 6 h
  ACBP immunofluorescence intensity: 0.963
[2]; 24 h
  ACBP immunofluorescence intensity: 0.633

## Oc1cc2c(cc1O)C(c1ccccc1)CNCC2 (stereo not given) (5 µM)
[1]; 6 h
  cell viability: 0.91
[1]; 24 h
  cell viability: 1.11
[2]; 6 h
  ACBP immunofluorescence intensity: 0.785
[2]; 24 h
  ACBP immunofluorescence intensity: 0.472

## CCOC(=O)C12CC1/C(=N/O)c1ccccc1O2 (stereo not given) (5 µM)
[1]; 6 h
  cell viability: 1.02
[1]; 24 h
  cell viability: 1.08
[2]; 6 h
  ACBP immunofluorescence intensity: 0.943
[2]; 24 h
  ACBP immunofluorescence intensity: 0.673

## CSc1ccc2c(c1)C(N1CCN(C)CC1)Cc1ccccc1S2 (stereo not given) (5 µM)
[1]; 6 h
  cell viability: 0.621
[1]; 24 h
  cell viability: 1.03
[2]; 6 h
  ACBP immunofluorescence intensity: 0.998
[2]; 24 h
  ACBP immunofluorescence intensity: 0.723

## COc1ccc(C(OCCN2CCC[C@H](C(=O)O)C2)(c2ccc(OC)cc2)c2ccc(OC)cc2)cc1 (5 µM)
[1]; 6 h
  cell viability: 0.927
[1]; 24 h
  cell viability: 1.08
[2]; 6 h
  ACBP immunofluorescence intensity: 0.999
[2]; 24 h
  ACBP immunofluorescence intensity: 0.981

## CSCC[C@H](NC(=O)[C@H](CC(C)C)NC(=O)CNC(=O)[C@H](Cc1ccccc1)NC(=O)[C@H](Cc1ccccc1)NC(=O)[C@H](CCC(N)=O)NC(=O)[C@H](CCC(N)=O)NC(=O)[C@@H]1CCCN1C(=O)[C@H](CCCCN)NC(=O)[C@@H]1CCCN1C(=O)[C@@H](N)CCCN=C(N)N)C(N)=O (5 µM)
[1]; 6 h
  cell viability: 1.11
[1]; 24 h
  cell viability: 1.07
[2]; 6 h
  ACBP immunofluorescence intensity: 0.632
[2]; 24 h
  ACBP immunofluorescence intensity: 0.754

## N[C@@H](COP(=O)(O)O)C(=O)O (5 µM)
[1]; 6 h
  cell viability: 1.05
[1]; 24 h
  cell viability: 1.13
[2]; 6 h
  ACBP immunofluorescence intensity: 0.765
[2]; 24 h
  ACBP immunofluorescence intensity: 0.408

## Nc1ncnc2c1ncn2[C@@H]1O[C@H](CO)[C@@H](O)[C@H]1O (5 µM)
[1]; 6 h
  cell viability: 1.06
[1]; 24 h
  cell viability: 1.15
[2]; 6 h
  ACBP immunofluorescence intensity: 0.997
[2]; 24 h
  ACBP immunofluorescence intensity: 0.903

## CC[C@H](C)[C@H](NC(=O)[C@@H](NC(=O)[C@H](CCC(=O)O)NC(=O)[C@H](CCSC)NC(=O)[C@H](CC(C)C)NC(=O)[C@H](CCCCN)NC(=O)[C@H](CCCNC(=N)N)NC(=O)[C@H](CC(N)=O)NC(=O)[C@H](CO)NC(=O)[C@H](Cc1c[nH]cn1)NC(=O)[C@H](C)NC(=O)[C@H](CCC(N)=O)NC(=O)[C@H](CCC(N)=O)NC(=O)[C@H](C)NC(=O)[C@H](CC(C)C)NC(=O)[C@H](CCC(N)=O)NC(=O)[C@H](CCC(=O)O)NC(=O)[C@H](C)NC(=O)[C@H](CCCNC(=N)N)NC(=O)[C@H](C)NC(=O)[C@H](CCSC)NC(=O)[C@H](CCC(=O)O)NC(=O)[C@H](CC(C)C)NC(=O)[C@@H](NC(=O)[C@H](CCC(=O)O)NC(=O)[C@H](CCCNC(=N)N)NC(=O)[C@H](CC(C)C)NC(=O)[C@H](CC(C)C)NC(=O)[C@H](Cc1c[nH]cn1)NC(=O)[C@H](Cc1ccccc1)NC(=O)[C@@H](NC(=O)[C@H](CC(C)C)NC(=O)[C@H](CC(=O)O)NC(=O)[C@H](CC(C)C)NC(=O)[C@H](CO)NC(=O)[C@@H](NC(=O)[C@@H]1CCCN1C(=O)[C@@H]1CCCN1C(=O)[C@H](CCC(=O)O)NC(=O)[C@H](CCC(=O)O)NC(=O)[C@@H](N)CO)[C@@H](C)CC)[C@@H](C)O)C(C)C)[C@@H](C)CC)C(N)=O (5 µM)
[1]; 6 h
  cell viability: 1.11
[1]; 24 h
  cell viability: 0.95
[2]; 6 h
  ACBP immunofluorescence intensity: 0.96
[2]; 24 h
  ACBP immunofluorescence intensity: 0.803
